No constants are given. Whether binding was seen depends on the method and setting. For some assays here: Binding seen in cells or lysates may run through a third protein. Some entries that bind do so weakly or less than the wild type. Tags and fused reporters may be left off the sequences shown.
Key:
[1] = molecular target: ASK1, 35S-labeled in vitro translated full-length human ASK1 (human) (UniProt Q99683); assay: GST pull-down
[2] = molecular target: JNKK2 carboxy-terminal deletion made with NotI-linearized pBS-JNKK2 (human) (UniProt O14733); assay: GST pull-down of 35S-labeled in vitro translated JNKK2 C-terminal deletions
[3] = molecular target: C-ASK1 (amino acids 648 to 1375 of human ASK1), in vitro translated (human) (UniProt Q99683); assay: GST pull-down of 35S-labeled in vitro translated protein
[4] = molecular target: ASK1, 35S-labeled in vitro translated full-length human ASK1 (human) (UniProt Q99683); assay: as above
[5] = molecular target: N-ASK1 (amino acids 1 to 756 of human ASK1), in vitro translated (human) (UniProt Q99683); assay: as above
[6] = molecular target: MEKK4, 35S-labeled in vitro translated full-length MEKK4 (murine) (UniProt O08648); assay: as above
[7] = molecular target: T1, endogenous MKK7 (JNKK2) of 3DO cells (UniProt Q8CE90); assay: immunoprecipitation followed by Western blot, 3DO cells
T1 sequence (looked up): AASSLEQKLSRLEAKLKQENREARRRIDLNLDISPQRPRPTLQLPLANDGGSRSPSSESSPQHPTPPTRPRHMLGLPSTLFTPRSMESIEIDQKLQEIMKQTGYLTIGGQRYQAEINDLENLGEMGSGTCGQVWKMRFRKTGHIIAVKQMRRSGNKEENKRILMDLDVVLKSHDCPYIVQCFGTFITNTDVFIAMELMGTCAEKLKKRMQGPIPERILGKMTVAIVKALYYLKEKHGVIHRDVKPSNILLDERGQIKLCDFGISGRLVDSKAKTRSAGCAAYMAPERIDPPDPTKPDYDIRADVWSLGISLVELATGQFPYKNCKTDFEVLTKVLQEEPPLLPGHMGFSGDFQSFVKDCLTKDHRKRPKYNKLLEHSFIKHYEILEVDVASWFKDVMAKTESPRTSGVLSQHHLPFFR

Protein sequences, listed by entry. Tags and fused reporters are not part of them. Lines headed by an entry give the natural chain unless they say otherwise; changes in a name come on top. Residues count along the entry.
UniProt Q99683: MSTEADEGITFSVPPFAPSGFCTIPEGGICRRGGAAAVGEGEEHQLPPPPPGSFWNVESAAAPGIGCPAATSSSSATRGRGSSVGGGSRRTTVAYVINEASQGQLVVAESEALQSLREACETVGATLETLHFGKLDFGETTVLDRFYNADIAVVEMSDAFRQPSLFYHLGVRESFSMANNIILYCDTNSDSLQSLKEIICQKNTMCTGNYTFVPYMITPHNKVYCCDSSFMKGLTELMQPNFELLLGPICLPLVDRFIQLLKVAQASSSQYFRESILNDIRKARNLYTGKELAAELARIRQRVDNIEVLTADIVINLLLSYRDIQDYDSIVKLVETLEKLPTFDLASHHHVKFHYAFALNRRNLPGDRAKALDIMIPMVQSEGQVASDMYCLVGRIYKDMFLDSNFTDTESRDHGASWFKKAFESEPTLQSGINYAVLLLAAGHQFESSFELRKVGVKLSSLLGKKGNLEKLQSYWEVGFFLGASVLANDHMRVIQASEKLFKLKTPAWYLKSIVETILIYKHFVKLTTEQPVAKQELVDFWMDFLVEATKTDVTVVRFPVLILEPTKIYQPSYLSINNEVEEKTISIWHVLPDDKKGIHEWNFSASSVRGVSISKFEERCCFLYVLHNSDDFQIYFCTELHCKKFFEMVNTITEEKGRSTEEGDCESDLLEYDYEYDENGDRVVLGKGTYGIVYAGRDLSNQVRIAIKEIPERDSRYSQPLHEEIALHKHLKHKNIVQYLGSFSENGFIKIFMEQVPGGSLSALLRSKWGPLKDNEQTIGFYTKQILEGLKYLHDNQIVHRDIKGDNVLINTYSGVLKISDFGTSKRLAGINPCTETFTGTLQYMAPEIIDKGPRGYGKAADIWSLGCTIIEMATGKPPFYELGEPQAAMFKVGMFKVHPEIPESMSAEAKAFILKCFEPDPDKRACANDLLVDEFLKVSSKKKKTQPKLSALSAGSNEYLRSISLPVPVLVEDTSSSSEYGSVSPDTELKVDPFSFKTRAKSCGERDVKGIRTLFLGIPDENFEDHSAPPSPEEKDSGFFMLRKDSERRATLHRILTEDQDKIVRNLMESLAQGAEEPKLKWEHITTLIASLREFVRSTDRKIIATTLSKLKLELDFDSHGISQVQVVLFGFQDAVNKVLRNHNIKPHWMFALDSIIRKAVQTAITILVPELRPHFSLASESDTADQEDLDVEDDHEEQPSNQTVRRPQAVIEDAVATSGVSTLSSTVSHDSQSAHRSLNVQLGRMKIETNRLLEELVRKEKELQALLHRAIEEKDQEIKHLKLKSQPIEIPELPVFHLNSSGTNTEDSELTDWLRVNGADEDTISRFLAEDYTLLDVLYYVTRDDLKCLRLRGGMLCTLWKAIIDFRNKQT
N-ASK1 (amino acids 1 to 756 of human ASK1), in vitro translated: residues 1-756 of Q99683
C-ASK1 (amino acids 648 to 1375 of human ASK1), in vitro translated: residues 648-1374 of Q99683
UniProt O08648: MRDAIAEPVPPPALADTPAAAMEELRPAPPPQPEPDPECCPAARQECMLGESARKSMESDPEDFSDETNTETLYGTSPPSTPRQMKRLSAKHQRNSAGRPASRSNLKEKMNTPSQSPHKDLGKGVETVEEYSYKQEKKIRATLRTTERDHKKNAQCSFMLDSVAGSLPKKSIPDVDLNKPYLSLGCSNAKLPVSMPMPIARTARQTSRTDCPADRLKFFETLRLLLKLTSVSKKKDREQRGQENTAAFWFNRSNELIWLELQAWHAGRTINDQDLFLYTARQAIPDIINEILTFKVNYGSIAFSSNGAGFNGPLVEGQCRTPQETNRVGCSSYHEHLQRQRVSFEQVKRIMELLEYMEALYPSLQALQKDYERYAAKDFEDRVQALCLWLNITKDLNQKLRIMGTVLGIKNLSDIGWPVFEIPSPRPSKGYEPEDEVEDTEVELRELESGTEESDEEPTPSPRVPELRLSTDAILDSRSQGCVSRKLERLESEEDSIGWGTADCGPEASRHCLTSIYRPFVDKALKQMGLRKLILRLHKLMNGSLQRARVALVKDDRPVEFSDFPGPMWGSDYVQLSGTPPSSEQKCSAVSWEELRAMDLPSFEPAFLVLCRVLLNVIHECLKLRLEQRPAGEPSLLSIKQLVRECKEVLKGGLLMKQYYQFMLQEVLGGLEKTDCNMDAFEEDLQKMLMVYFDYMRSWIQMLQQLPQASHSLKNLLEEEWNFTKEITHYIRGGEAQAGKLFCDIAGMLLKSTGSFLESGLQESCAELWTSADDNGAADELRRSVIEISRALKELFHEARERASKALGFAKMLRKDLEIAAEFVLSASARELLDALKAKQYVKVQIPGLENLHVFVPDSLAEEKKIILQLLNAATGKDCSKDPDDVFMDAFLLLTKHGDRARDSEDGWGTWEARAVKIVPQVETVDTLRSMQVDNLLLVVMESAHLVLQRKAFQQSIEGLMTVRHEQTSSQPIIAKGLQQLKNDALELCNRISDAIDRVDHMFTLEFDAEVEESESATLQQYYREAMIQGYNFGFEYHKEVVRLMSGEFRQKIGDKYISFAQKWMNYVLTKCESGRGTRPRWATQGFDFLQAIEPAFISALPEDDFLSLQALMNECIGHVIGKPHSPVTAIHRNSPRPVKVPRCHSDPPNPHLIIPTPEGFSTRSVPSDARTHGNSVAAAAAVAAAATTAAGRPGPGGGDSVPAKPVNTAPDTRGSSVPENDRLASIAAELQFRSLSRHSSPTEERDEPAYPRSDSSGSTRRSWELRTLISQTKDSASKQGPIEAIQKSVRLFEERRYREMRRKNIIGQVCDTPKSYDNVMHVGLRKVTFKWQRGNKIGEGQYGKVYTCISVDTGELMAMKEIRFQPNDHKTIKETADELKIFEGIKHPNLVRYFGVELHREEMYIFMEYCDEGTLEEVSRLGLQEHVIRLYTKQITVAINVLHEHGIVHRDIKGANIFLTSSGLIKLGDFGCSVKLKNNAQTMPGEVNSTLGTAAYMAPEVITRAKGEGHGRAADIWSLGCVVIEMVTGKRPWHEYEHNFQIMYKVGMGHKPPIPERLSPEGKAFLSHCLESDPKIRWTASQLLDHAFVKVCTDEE

[8] = molecular target: T1, endogenous MKK7 (JNKK2) of 3DO cells; assay: co-immunoprecipitation from P/I-treated 3DO cells with anti-Gadd45β monoclonal or anti-MKK7 antibodies

Measured: binding

B1: GST-Gadd45β (full-length murine Gadd45β directly fused to GST) (protein, UniProt P22339 1-160, looked up, not shown: a dimerising Fc or GST)
chain: MTLEELVASDNAVQKMQAVTAAVEQLLVAAQRQDRLTVGVYEAAKLMNVDPDSVVLCLLAIDEEEEDDIALQIHFTLIQSFCCDNDIDIVRVSGMQRLAQLLGEPAETLGTTEARDLHCLLVTNCHTDSWKSQGLVEVASYCEESRGNNQWVPYISLEER
not listed: [7] | [8]
binds: all other assays above

B2: Gadd45β in cells (untagged full-length: endogenous in 3DO cells and MEFs, or stably expressed in 3DO-IκBαM-Gadd45β clones) (protein, UniProt P22339 1-160, looked up)
chain: B1 chain
binds: [7] | [8]

From US20050265970A1
